Measurements reported in PubChem BioAssay AID485313 (National Center for Advancing Translational Sciences (NCATS), 2010).
The list shows a part of the results, in another mix than the full data. Calls of active or inactive are those of the source. Calls come from the whole dose curve; as a rule, active = well fitted activation curve with a large enough effect; inconclusive = small, poorly fitted or top-dose-only effect; inactive = no such curve, though single readings can be large or run the other way.

assay: qHTS Assay for NPC1 Promoter Activators; settings: Huh7 NPC1 promoter luciferase reporter, 24 h; note: nearly all actives have a fitted effect of over 60% in size
Excerpt: NIH Chemical Genomics Center [NCGC] NIH Molecular Libraries Probe Production centers Network [MLPCN] MLPCN Grant: MH089375-01A1 Assay Submitter (PI): Yiannis A. Ioannou NCGC Assay Overview: Niemann Pick Type C (NPC) is a rare neurodegenerative lipidosis that is characterized by lipid storage in the endosomal/lysosomal system. Treatment modalities for this devastating disease are currently non-existent due to the severe obstacles associated with accessing the central nervous system with proteins or genes. The majority of mutations causing NPC disease are missense mutations that are distributed throughout the length of the NPC1 protein, with the most prevalent being the I1061T allele. Although NPC1 mutant proteins may be functional, they are typically trapped in the ER due to misfolding. […] We have developed and optimized a cell based luciferase reporter assay in 1536 well format for the identification of up-regulators of the mutant NPC1 promoter.
The NPC1 promoter is cloned in front of the luciferase reporter gene, therefore NPC promoter activation results in luciferase expression. Frozen stock of the NPC1 promoter transfected Huh7 cells were obtained from the laboratory of Dr. Yiannis Ioannou (The Mount Sinai School of Medicine, New York, NY). […] 7.#Read using the luminescence protocol on the ViewLux plate reader (Perkin Elmer).
Potency is the fitted concentration of half-maximal effect.

Row | SMILES | Potency
1 | Cc1cc(=O)oc2cc(OCc3ccccc3)ccc12 | active: 2 µM
